According to PubChem BioAssay AID1259415 (National Center for Advancing Translational Sciences (NCATS), 2018):
Screen size: about 410,000 compounds; about 18,000 (4.4%) were called active. Inconclusive results, whose numbers are uncertain, are shown with a selection of clear calls. Cut-off read from the data, not from the text of the source: active = activity change below about -60%; inconclusive = no clear call, values can overlap the other calls; inactive = above about -39%.

Assay: qHTS Assay for inhibitors of the human cytomegalovirus (HCMV)
Conditions: HFF cells, HCMV-luciferase reporter, 72 h; at 57.5 µM; stronger effect = lower value
Procedure, shortened: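 HFF cells seeded 16 h at 37C, treated with compounds, infected with luciferase-reporter HCMV at MOI 1 PFU/cell; luciferase read at 72 h post infection, normalized to buffer-only and Salinomycin controls.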
% is set by controls: 0 for no effect and ±100 for the full control effect.

| SMILES | activity change, negative = inhibition |
| --- | --- |
| Cc1ccccc1NS(=O)(=O)c1ccc2[nH]cc(C(=O)NCCCN3CCOCC3)c(=O)c2c1 | inconclusive: -45.3% |
| CCOc1ccc(NC(=O)COC(=O)CC2CCCCC2)cc1 | inconclusive: -59.7% |
| CN1C(=O)/C(=C\c2ccc(N3CCCCCC3)cc2)C(=O)NC1=S | inactive: -1.35% |
| CCCN1C(C(=O)c2ccccc2)=C(OC(=O)c2ccc(C)cc2)c2ccccc2S1(=O)=O | active: -84.6% |
| O=C(NC12CC3CC(CC(C3)C1)C2)N1CCN(c2ccccn2)CC1 | inactive: -27.8% |
| CCC1=C(OC(=O)N(CC)CC)N2C(=O)OC(=NCCc3c[nH]c4ccccc34)[C@]2(Cc2ccccc2)[C@H]2C1=CC[C@H]1C(=O)N(C)C(=O)[C@H]12 | inconclusive: -47% |
| CN1CCN(CCC(=O)Nc2ccc(Cl)cc2)CC1 | inactive: 23.7% |
| Cc1cc(=O)oc2cc(NC(=S)NNC(=O)c3c(Cl)cnn3C)ccc12 | inactive: 20.8% |
| COc1ccc(C(=O)Oc2ccc(C(c3c(C)[nH][nH]c3=O)c3c(C)[nH][nH]c3=O)cc2OC)cc1 | inconclusive: -43% |
| COc1ccc(S(=O)(=O)N2CCN(C(=O)c3cc(-c4ccc(C)cc4)n[nH]3)CC2)cc1 | inconclusive: -56.6% |
| CC1=Nc2ccccc2N=C(NC(=O)c2ccccc2)C1c1ccc(Cl)cc1 (configuration not stated) | active: -63% |
| CCn1nc(C)cc1-c1n[nH]c(=S)n1N | inconclusive: -47.2% |
| COc1cccc(CNC(=O)CCS(=O)(=O)c2ccc3c(c2)CC(C)N3C(=O)C2CC2)c1 (configuration not stated) | inconclusive: -50% |
| Cc1cc(C)c(S(=O)(=O)Oc2ccccc2[N+](=O)[O-])c(C)c1 | inconclusive: -46.8% |
| Cc1ccc(O)c(-c2n[nH]c3c2C(c2ccccc2F)N(Cc2ccco2)C3=O)c1 (configuration not stated) | inconclusive: -45.8% |
| COc1ccccc1CN1CC(C(=O)NCc2cccc(C)n2)CCC1=O (configuration not stated) | inconclusive: -44.8% |
| Cc1cc(OCC(=O)N(C)C2CCCCC2)ccc1Cl | inconclusive: -41.9% |
| Cn1c(=O)n(C)c2cc(NC(=O)c3ccc(F)cc3)c(Br)cc21 | inconclusive: -58.3% |
| O=C(Cn1c(=O)nc(-c2ccccc2)c2cc(Cl)ccc21)NCCc1ccccc1 | inactive: 12.8% |
| CN(C)CCOC1(Cc2ccc(F)cc2)CCC(C(C)(C)C)CC1 (configuration not stated) | inconclusive: -48.5% |
| O=C(N/N=C/c1ccccc1Br)c1ccc(CSc2cccc3cccnc23)cc1 | inactive: -34.6% |

| SMILES | activity change, negative = inhibition |
| --- | --- |
| O=C(CSc1n[nH]c(-c2ccncc2)n1)Nc1ccccc1Cl | inactive: -24.1% |
| CCc1cc2c(-c3ccccc3)cc(=O)oc2cc1OC(C)C(C)=O (configuration not stated) | inconclusive: -49.1% |
| Cc1ccc(NS(=O)(=O)c2ccc(C(=O)NC3CCN(Cc4ccccc4)CC3)cc2)cc1 | active: -92.1% |
| CCOc1ccc(NC(=O)Cn2c(=O)oc3cc(S(=O)(=O)N4CCC(C)CC4)ccc32)cc1 | inconclusive: -48% |
| CCc1cccc(NC(=O)CCN2C(=O)c3ccccc3Sc3ncccc32)c1 | inconclusive: -40.8% |
| Cn1cc(C(=O)C(=O)N2CCCc3ccccc32)c2ccccc21 | inconclusive: -44.5% |
| COc1cc(C(=O)NC2CCN(C)CC2)ccc1Nc1ncc2c(n1)N(Cc1ccccc1)CCC(=O)N2C | active: -76.2% |
| O=C(COc1ccccc1-c1ccccc1)NNC(=O)NC1CCCCC1 | inconclusive: -45.2% |
| Cc1ccc(-n2nc3c(=O)n(C(C)C(=O)NCc4ccc(Cl)cc4)nc(C)c3c2C)cc1 (configuration not stated) | active: -67.9% |
| CCN(CC)C(=O)c1cccc(-c2csc(C(C)(O)c3cccc(OC)c3)n2)c1 (configuration not stated) | active: -77.7% |
| O=C(Nc1ccc(NC(=O)c2cc3ccccc3o2)cc1)c1ccc2c(c1)OCCO2 | inconclusive: -56.7% |
| FC(F)(F)c1cnc(/C=C/Nc2ccccc2Cl)c(Cl)c1 | inactive: 18.6% |
| CCC1CN(C(=O)Nc2ccc(C(=O)O)cc2)c2cc(Cl)ccc2O1 (configuration not stated) | inactive: -16.3% |
| CCc1ccccc1N(C(=O)c1snc(C(N)=O)c1N)C(C(=O)NCC1CCCO1)c1ccc(N(C)C)cc1 (configuration not stated) | inconclusive: -48.7% |
| COc1cc(C)ccc1OCCOCCOc1cccc2ccc(C)nc12 | inconclusive: -40.9% |
| O=C(Nc1ccccc1F)c1ccc(C(=O)c2ccccc2)cc1 | active: -71.9% |
| O=C(Nc1cccc(-c2ccc(N3CCCCC3)nn2)c1)C(F)(F)F | inactive: -4.28% |
| C/C=C\C=C/C(=O)Nc1cccc(C2=NOC3(C2)C[C@@H](C(N)=O)N(C(=O)C2(C)CC2)C3)c1 (some centres not stated) | inactive: 44.9% |
| COc1ccc(C2=Nc3ccccc3NC(=O)C2N(C(=O)c2cnc(C)cn2)c2ccc(N3CCOCC3)cc2)cc1 (configuration not stated) | inactive: 22.7% |
| COc1ccc(CCNCC2C(Oc3ccc(Cl)cc3)C(=O)N2c2ccccc2C)cc1OC (configuration not stated) | inconclusive: -44.8% |
| COc1ccc(OC)c2[nH]c(=O)c(CCNC(=O)c3ccc4c(c3)OCO4)cc12 | inconclusive: -43.6% |

Looked up above:
activity change, negative = inhibition, `COc1ccc(CCNCC2C(Oc3ccc(Cl)cc3)C(=O)N2c2ccccc2C)cc1OC` (configuration not stated) reads inconclusive: -44.8%
activity change, negative = inhibition, `CN1CCN(CCC(=O)Nc2ccc(Cl)cc2)CC1` reads inactive: 23.7%
